In article PMC6373471:
No constants are given. Whether binding was seen depends on the method and setting. Some binding calls cover weakened binding; strength is not graded here.

By UniProt entry, the sequences of proteins in these tests, tags left out.
UniProt Q9C9W9: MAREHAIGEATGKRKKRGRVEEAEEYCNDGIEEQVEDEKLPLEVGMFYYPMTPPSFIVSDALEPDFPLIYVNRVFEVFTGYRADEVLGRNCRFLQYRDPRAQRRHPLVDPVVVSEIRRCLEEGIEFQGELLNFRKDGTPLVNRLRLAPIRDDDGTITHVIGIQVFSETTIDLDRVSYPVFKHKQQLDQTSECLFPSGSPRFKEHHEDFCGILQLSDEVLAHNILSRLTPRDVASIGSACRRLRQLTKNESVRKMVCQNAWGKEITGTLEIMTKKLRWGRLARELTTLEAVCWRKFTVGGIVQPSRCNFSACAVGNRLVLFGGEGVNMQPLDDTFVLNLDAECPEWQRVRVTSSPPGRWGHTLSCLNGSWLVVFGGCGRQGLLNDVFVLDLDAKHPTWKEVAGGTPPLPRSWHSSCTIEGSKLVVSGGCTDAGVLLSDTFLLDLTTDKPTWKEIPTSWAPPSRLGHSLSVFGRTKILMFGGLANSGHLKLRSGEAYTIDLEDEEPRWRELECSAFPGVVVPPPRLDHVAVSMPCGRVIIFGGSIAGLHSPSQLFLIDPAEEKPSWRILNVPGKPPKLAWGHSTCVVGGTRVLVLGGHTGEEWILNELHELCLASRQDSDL
UniProt Q8W420: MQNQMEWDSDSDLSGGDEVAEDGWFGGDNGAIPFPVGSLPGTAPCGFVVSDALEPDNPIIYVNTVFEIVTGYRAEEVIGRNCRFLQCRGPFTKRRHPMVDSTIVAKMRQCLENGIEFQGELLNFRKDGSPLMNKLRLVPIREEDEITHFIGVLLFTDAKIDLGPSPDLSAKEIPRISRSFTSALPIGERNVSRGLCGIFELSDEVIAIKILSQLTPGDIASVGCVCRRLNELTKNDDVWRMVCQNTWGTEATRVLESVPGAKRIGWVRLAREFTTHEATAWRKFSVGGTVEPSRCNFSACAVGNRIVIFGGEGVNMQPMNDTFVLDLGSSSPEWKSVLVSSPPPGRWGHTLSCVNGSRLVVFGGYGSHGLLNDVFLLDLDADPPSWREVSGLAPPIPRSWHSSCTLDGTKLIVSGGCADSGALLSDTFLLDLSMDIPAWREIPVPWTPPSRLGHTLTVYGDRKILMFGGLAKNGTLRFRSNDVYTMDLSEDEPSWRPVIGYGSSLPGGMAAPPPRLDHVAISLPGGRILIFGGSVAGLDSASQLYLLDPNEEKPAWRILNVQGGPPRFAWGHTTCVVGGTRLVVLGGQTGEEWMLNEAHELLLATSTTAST
UniProt Q94BT6: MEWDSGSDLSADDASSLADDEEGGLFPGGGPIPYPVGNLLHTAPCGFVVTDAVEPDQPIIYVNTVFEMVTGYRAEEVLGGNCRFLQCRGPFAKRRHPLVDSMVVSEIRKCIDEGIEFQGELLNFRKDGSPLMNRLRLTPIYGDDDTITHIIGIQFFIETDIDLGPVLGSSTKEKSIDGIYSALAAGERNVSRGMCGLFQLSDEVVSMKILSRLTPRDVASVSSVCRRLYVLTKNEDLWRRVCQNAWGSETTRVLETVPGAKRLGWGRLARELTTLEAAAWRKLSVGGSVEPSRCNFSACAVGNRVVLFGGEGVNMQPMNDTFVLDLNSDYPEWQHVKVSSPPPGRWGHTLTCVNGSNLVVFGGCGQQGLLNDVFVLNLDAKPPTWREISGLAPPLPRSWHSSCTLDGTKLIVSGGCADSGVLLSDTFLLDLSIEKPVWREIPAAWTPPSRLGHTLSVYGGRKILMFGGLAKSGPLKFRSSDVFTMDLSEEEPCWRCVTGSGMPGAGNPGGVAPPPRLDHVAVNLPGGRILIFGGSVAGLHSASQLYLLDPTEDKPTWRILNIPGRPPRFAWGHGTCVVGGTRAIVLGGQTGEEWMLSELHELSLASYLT

T1: CDF6, full length, yeast two-hybrid bait (Arabidopsis thaliana) (UniProt Q9LQX4)
T1 sequence: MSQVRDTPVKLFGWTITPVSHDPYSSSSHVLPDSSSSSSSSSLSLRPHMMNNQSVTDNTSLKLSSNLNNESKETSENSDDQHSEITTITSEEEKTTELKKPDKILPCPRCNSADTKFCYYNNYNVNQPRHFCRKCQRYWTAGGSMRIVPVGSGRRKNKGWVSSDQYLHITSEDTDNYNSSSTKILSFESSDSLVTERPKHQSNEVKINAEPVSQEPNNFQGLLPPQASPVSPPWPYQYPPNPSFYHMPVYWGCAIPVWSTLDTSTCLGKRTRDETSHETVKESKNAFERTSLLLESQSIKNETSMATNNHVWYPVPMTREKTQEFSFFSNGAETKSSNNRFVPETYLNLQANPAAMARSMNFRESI

B1: GI‐FL, yeast two-hybrid prey (protein, UniProt Q9SQI2 1-1173)
chain: MASSSSSERWIDGLQFSSLLWPPPRDPQQHKDQVVAYVEYFGQFTSEQFPDDIAELVRHQYPSTEKRLLDDVLAMFVLHHPEHGHAVILPIISCLIDGSLVYSKEAHPFASFISLVCPSSENDYSEQWALACGEILRILTHYNRPIYKTEQQNGDTERNCLSKATTSGSPTSEPKAGSPTQHERKPLRPLSPWISDILLAAPLGIRSDYFRWCSGVMGKYAAGELKPPTIASRGSGKHPQLMPSTPRWAVANGAGVILSVCDDEVARYETATLTAVAVPALLLPPPTTSLDEHLVAGLPALEPYARLFHRYYAIATPSATQRLLLGLLEAPPSWAPDALDAAVQLVELLRAAEDYASGVRLPRNWMHLHFLRAIGIAMSMRAGVAADAAAALLFRILSQPALLFPPLSQVEGVEIQHAPIGGYSSNYRKQIEVPAAEATIEATAQGIASMLCAHGPEVEWRICTIWEAAYGLIPLNSSAVDLPEIIVATPLQPPILSWNLYIPLLKVLEYLPRGSPSEACLMKIFVATVETILSRTFPPESSRELTRKARSSFTTRSATKNLAMSELRAMVHALFLESCAGVELASRLLFVVLTVCVSHEAQSSGSKRPRSEYASTTENIEANQPVSNNQTANRKSRNVKGQGPVAAFDSYVLAAVCALACEVQLYPMISGGGNFSNSAVAGTITKPVKINGSSKEYGAGIDSAISHTRRILAILEALFSLKPSSVGTPWSYSSSEIVAAAMVAAHISELFRRSKALTHALSGLMRCKWDKEIHKRASSLYNLIDVHSKVVASIVDKAEPLEAYLKNTPVQKDSVTCLNWKQENTCASTTCFDTAVTSASRTEMNPRGNHKYARHSDEGSGRPSEKGIKDFLLDASDLANFLTADRLAGFYCGTQKLLRSVLAEKPELSFSVVSLLWHKLIAAPEIQPTAESTSAQQGWRQVVDALCNVVSATPAKAAAAVVLQAERELQPWIAKDDEEGQKMWKINQRIVKVLVELMRNHDRPESLVILASASDLLLRATDGMLVDGEACTLPQLELLEATARAIQPVLAWGPSGLAVVDGLSNLLKCRLPATIRCLSHPSAHVRALSTSVLRDIMNQSSIPIKVTPKLPTTEKNGMNSPSYRFFNAASIDWKADIQNCLNWEAHSLLSTTMPTQFLDTAARELGCTISLSQ

The molecules below were run against T1, CDF6, full length, yeast two-hybrid bait (Arabidopsis thaliana) (assay: two-hybrid; yeast two-hybrid: CDF6 as bait (pAS-GW, strain AH109), preys in strain Y187, mated; growth on -WL and -WLH media).

binding, binds:
FKF1, yeast two-hybrid prey (from UniProt Q9C9W9 1-619)
LKP2, yeast two-hybrid prey (from UniProt Q8W420 1-611)
ZTL, yeast two-hybrid prey (from UniProt Q94BT6 1-609)
B1
